PMC4233175 (Clinical cancer research : an official journal of the …, 2014)

Columns and labels:
Assay type in all cases: cell-based
[1] = test system: GIST882 cells (KIT K642E); assay: Viability assay, GIST-derived cell line GIST882; settings: Homo sapiens, GIST882, 72 h
[2] = test system: GIST430 cells (KIT Δ560-576); assay: Viability assay, GIST-derived cell line GIST430; settings: Homo sapiens, GIST430, 72 h
[3] = test system: GIST430/654 cells (KIT Δ560-576/ V654A); assay: Viability assay, GIST-derived cell line GIST430/654; settings: Homo sapiens, GIST-430/654, 72 h
[4] = test system: GIST430/654/680 cells (KIT Δ560-576/V654A/N680K); assay: Viability assay, GIST-derived cell line GIST430/654/680; settings: Homo sapiens, GIST-430/654, 72 h
[5] = test system: GIST48/820 cells (KIT V560D / D820A); assay: Viability assay, GIST-derived cell line GIST48/820; settings: Homo sapiens, GIST48, 72 h
[6] = test system: GIST48B cells (KIT-independent); assay: Viability assay, GIST-derived cell line GIST48B; settings: Homo sapiens, 72 h
[7] = test system: GIST226 cells (KIT-independent); assay: Viability assay, GIST-derived cell line GIST226; settings: Homo sapiens, 72 h
[8] = test system: Ba/F3 cells harboring KIT exon 11 primary mutants; assay: Ba/F3 viability assay, KIT exon 11 primary mutants; settings: Mus musculus, BaF3
[9] = test system: Ba/F3 cells harboring KIT exon 11 Δ551-554; assay: Ba/F3 viability assay, KIT Δ551-554; settings: Mus musculus, BaF3
[10] = test system: Ba/F3 cells harboring KIT exon 9 insertion (502AY); assay: Ba/F3 viability assay, KIT exon 9 mutant; settings: Mus musculus, BaF3

IC50 [8]: ≤ 30 nM
IC50 [9]: 90 to 141 nM
IC50 [10]: > 130 nM
SMILES: Cc1ccc(NC(=O)c2ccc(CN3CCN(C)CC3)cc2)cc1Nc1nccc(-c2cccnc2)n1 [Imatinib]
IC50 [1]: 173 nM
IC50 [2]: 61 nM
IC50 [3]: 1200 nM
IC50 [4]: > 5000 nM
IC50 [5]: 413 nM
IC50 [6]: > 5000 nM
IC50 [7]: > 5000 nM
